From PubChem BioAssay AID602313 (National Center for Advancing Translational Sciences (NCATS), 2012)
Hit rate of the full screen: of about 390,000 compounds, about 760 (0.19%) were called active. The shares of active, inactive and inconclusive entries below differ from those in the screen. The call rests on the fitted dose curve; in most records, active means well fitted inhibition curve with a large enough effect; inconclusive means small, poorly fitted or top-dose-only effect; inactive means flat fitted curve, though single readings scatter. Where the call is inconclusive, the potency comes from a doubtful curve fit.

Test: qHTS for Inhibitors of Vif-A3F Interactions: qHTS; further: nearly all actives have a fitted effect of over 65% in size; on activity, negative = active: % of control where 0% means no effect
Conditions: HeLa A3F-eYFP + Vif (tagged APOBEC3F with the HIV-1 protein that degrades it), YFP fluorescence increase; series mostly up to 46.1 µM; activity, negative = active: at the top concentration
Procedure, shortened: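 HeLa cells stably expressing A3F-eYFP plus Vif, plated and incubated overnight at 37 deg C, then exposed to compounds overnight at 37 deg C. Blocked degradation read as raised yellow fluorescence (Ex 488/Em 500-530).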
Potency means the concentration at half of the fitted maximal effect.

SMILES	Potency	activity, negative = active
COc1cccc(CC2(CO)CCN(Cc3cnc(N4CCOCC4)s3)CC2)c1	inconclusive: 6.31 µM [inhibitor, single point]	–
Cc1ccc(NS(=O)(=O)c2ccc(OCC(=O)NCC3CCCO3)cc2)cc1 (stereo not drawn)	–	inactive: -8.68%
N=c1c(S(=O)(=O)c2ccc(Cl)cc2)cc2c(=O)n3ccccc3nc2n1Cc1cccnc1	inconclusive: 5.62 µM [inhibitor, partial curve, poor fit]	–
CCN(CC(=O)Nc1cccc(F)c1)Cc1nc2ccccc2c(=O)[nH]1	inconclusive: 35.5 µM [inhibitor, single point]	–
C/C(=N\Nc1ccc(Cl)nn1)c1ccccc1O	inconclusive: 28.2 µM [inhibitor, partial curve, poor fit]	–
Cc1ccc(S(=O)(=O)n2[nH]c(=O)c(CCO)c2C)cc1	inconclusive: 3.55 µM [inhibitor, single point]	–
COc1ccc(NC(=O)c2sc3nc(-c4ccc(OC)cc4)cc(C(F)(F)F)c3c2N)cc1	inconclusive: 7.08 µM [inhibitor, full curve, poor fit]	–
CCOCCCNC(=O)c1[nH]c2cc(C)ccc2c1Sc1ccc(Cl)cc1	–	inactive: -3.65%
S=C1SCN(Cc2ccccc2)CN1Cc1ccccc1	inconclusive: 5.62 µM [inhibitor, single point]	–
c1ccc(Cc2nnc3sc(-c4cccs4)nn23)cc1	–	inactive: -0.426%
COc1ccccc1C(=O)Oc1ccc2ccc(=O)oc2c1	inconclusive: 4.47 µM [inhibitor, single point]	–
CN(Cc1cccnc1)C(=O)CNC(=O)COc1ccccc1	inconclusive: 8.91 µM [inhibitor, partial curve, poor fit]	–
Cn1c(N)c(C(=O)CSc2ncn[nH]2)c(=O)n(C)c1=O	–	inactive: 0.684%
Cc1sc2nc(CSCC(=O)Nc3c(F)cccc3F)[nH]c(=O)c2c1C	inconclusive: 11.2 µM [inhibitor, partial curve, poor fit]	–
CCOC(=O)C1CCCN(c2cc(C)nc3c(-c4ccccc4OC)c(C)nn23)C1 (stereo not drawn)	–	inactive: -2.69%
CCc1c(C)sc(NC(=O)c2cc(-c3cccc(Cl)c3)on2)c1C#N	–	inactive: 5.44%
Cc1cc(=O)[nH]c(SCC(=O)Nc2ccnc3ccccc23)n1	inconclusive: 0.631 µM [inhibitor, full curve, poor fit]	–
COc1ccc(C2=C(C)C(=NCCCN3CCN(c4cc(C)ccc4C)CC3)NS2(=O)=O)cc1	–	inactive: -3.05%
Cc1ccc(CSCC(=O)N2CCN(c3ccccc3F)CC2)cc1	–	inactive: 5%
COC(=O)c1ccc(C(=O)OC)c(NC(=O)COC(=O)CCOc2ccc(C)cc2)c1	inconclusive: 3.16 µM [inhibitor, full curve, poor fit]	–
O=C(NNC(=O)c1cc(-c2ccc(Cl)cc2Cl)nc2ccccc12)Nc1ccccc1	inconclusive: 15.8 µM [inhibitor, single point]	–
Cc1cc(C)c2nc(NNC(=O)c3cc(=O)c4ccccc4o3)sc2c1	inconclusive: 35.5 µM [inhibitor, single point]	–

SMILES	Potency	activity, negative = active
CCOc1ccccc1OCCOCCN1CCN(Cc2ccccc2)CC1	–	inactive: 5.81%
Cc1cccc(N2CCN(S(=O)(=O)c3cccc4nonc34)CC2)c1C	inconclusive: 6.31 µM [inhibitor, partial curve, poor fit]	–
Cc1ccc(S(=O)(=O)N2CCN(C(=O)CSC(=S)N3CCCC3)CC2)c(C)c1	inconclusive: 3.98 µM [inhibitor, full curve, poor fit]	–
O=C(CCN1C(=O)/C(=C/c2cccs2)SC1=S)Nc1cccc(O)c1	–	inactive: 1.9%
COc1ccc(-n2nc3c(c2NC(=O)CCCl)CSC3)cc1	inconclusive: 35.5 µM [inhibitor, single point]	–
COc1ccc(/C=C2\C(=O)NC(=S)N2C(=O)c2ccc(F)cc2)cc1	inconclusive: 2.82 µM [inhibitor, full curve, poor fit]	–
O=C(NC1(O)C(=O)c2ccccc2C1=O)c1ccc(C(F)(F)F)cc1	–	inactive: -2.73%
COc1ccccc1N(C)S(=O)(=O)c1ccc(C(=O)O)cc1	inconclusive: 12.6 µM [inhibitor, partial curve, poor fit]	–
CCOC(=O)c1cnc2c(OC)cccc2c1N1CCN(c2ccccc2OC)CC1	–	inactive: 12.3%
O=C(NCCc1ccc(F)cc1)c1cccc2c1C(=O)c1ccc(N3CCC(Cc4ccccc4)CC3)cc1S2(=O)=O	inconclusive: 25.1 µM [inhibitor, single point]	–
O=C(NC(=S)Nc1ccccc1N1CCCC1)c1cccs1	inconclusive: 35.5 µM [inhibitor, single point]	–
Oc1[nH]c2ccccc2c1N=Nc1c(F)c(F)c(F)c(F)c1F	active: 25.1 µM	–
COc1ccc(NC(=O)CSc2nnnn2C2CCCCC2)c(OC)c1	inconclusive: 25.1 µM [inhibitor, single point]	–
CC1(c2ccccc2)NC(=O)N(CC(=O)NCC2CCCO2)C1=O (stereo not drawn)	inconclusive: 35.5 µM [inhibitor, single point]	–
COCCNC(=O)/C(C#N)=C/c1cccc(OCc2ccccc2)c1	inconclusive: 35.5 µM [inhibitor, single point]	–
COc1nn(C(C)C(=O)N2N=C(C(F)F)CC2(O)C(F)F)cc1[N+](=O)[O-] (stereo not drawn)	–	inactive: 0.488%
Cc1cccn2c(=O)c3cc(C#N)c(=NC(=O)c4ccco4)n(Cc4ccco4)c3nc12	inconclusive: 22.4 µM [inhibitor, single point]	–
CCOC(=O)Nc1nc(-c2ccccc2)c(C(=O)c2ccc(Cl)cc2)s1	inconclusive: 3.16 µM [inhibitor, single point]	–
O=S(=O)(Nc1nc2ccccc2nc1Nc1ccc(N2CCOCC2)cc1)c1cc(Cl)ccc1Cl	inconclusive: 5.62 µM [inhibitor, single point]	–
NC(=S)N=Nc1c(O)n(CCCl)c2ccc(Br)cc12	inconclusive: 5.62 µM [inhibitor, single point]	–
COc1cccc(/C=C2\C(=O)N(c3cccc(C)c3)C(=O)c3ccccc32)c1	inconclusive: 28.2 µM [inhibitor, partial curve, poor fit]	–

Quoted at random: two records from the list, in no set order.
SMILES	Potency	activity, negative = active
CC1(c2ccccc2)NC(=O)N(CC(=O)NCC2CCCO2)C1=O (stereo not drawn)	inconclusive: 35.5 µM [inhibitor, single point]	–
O=C(CCN1C(=O)/C(=C/c2cccs2)SC1=S)Nc1cccc(O)c1	–	inactive: 1.9%
